No constants are given. Whether binding was seen depends on the method and setting. For part of these data: A result given as binding can be weak or reduced; the word gives no strength. Each block holds one binder with its values, some of them ahead of it.
Assays:
[1] = molecular target: type II collagen cleaved by collagenase; assay: BIAcore, 9A4 at 10 µg/ml over amine-coupled collagen
type I collagen = assay: BIAcore, antibody over amine-coupled collagen
type II collagen = assay: BIAcore, antibody over amine-coupled collagen
[2] = molecular target: type II collagen cleaved by collagenase; assay: BIAcore, 5109 at 10 µg/ml over amine-coupled collagen

binding [1]: binds | binding (type I collagen): no binding (tested: 10 µg/ml) | binding (type II collagen): no binding (tested: 10 µg/ml)
B1: monoclonal antibody 9A4 (antibody, V domains shown)
VH: QIQLVQSGPELKKPGETVKISCKASGYTFTDYSIHWVKQAPGKGLKWMGWINTETGEPTYADDFKGRFAFSLETSASTAYLQINNLKNEDTATYFCARGGSLDYWGQGTTLTVSS
VL: QIVLTQSPVFMSASPGEKVTMTCSASSSVSYMYWYQQKPGSSPRLLIHATSNLASGVPVRFSGGGSGTSYSLTISRMEAEDAATYYCQQWRSYTRTFGGGTKLEIIR

binding [2]: binds | binding (type I collagen): no binding (tested: 10 µg/ml) | binding (type II collagen): no binding (tested: 10 µg/ml)
B2: monoclonal antibody 5109 (antibody, V domains shown)
VH: EVQLVESGGGSVQPGGSLKLSCAASGFTFNTYGMSWVRQTPDKRLEWVATINSNGGLTFYADSVKGRFTISRDNAKNTLYLQMNRLKSGDSGMYYCVRGYSNYARWGQGALVTVSA
VL: DVVMTQTPLTLSVTIGQSASISCKSSQSLLGSDGLTYLIWLLQRPGQSPKRLIFLVSELDSGVPDRFTGSGSGTDFTLKISRVEAEDLGVYYCCQGTHFPHTFGAGTKLELK
